From article PMC12402098, “YTHDF3 recognizes DNA N6-methyladenine and recruits ALKBH1 for 6mA removal from genomic DNA” (The EMBO Journal, 2025)
Construct, isoform or probe ends are uncertain for at least one entry. Where a protein sequence is shown, tags need not be part of it.

Target: T1, YTHDF3 MTbind L455M,L461V,V482A,A487T,Y488C,E502D,K504R (UniProt Q7Z739)
T1 sequence (looked up, limits assumed): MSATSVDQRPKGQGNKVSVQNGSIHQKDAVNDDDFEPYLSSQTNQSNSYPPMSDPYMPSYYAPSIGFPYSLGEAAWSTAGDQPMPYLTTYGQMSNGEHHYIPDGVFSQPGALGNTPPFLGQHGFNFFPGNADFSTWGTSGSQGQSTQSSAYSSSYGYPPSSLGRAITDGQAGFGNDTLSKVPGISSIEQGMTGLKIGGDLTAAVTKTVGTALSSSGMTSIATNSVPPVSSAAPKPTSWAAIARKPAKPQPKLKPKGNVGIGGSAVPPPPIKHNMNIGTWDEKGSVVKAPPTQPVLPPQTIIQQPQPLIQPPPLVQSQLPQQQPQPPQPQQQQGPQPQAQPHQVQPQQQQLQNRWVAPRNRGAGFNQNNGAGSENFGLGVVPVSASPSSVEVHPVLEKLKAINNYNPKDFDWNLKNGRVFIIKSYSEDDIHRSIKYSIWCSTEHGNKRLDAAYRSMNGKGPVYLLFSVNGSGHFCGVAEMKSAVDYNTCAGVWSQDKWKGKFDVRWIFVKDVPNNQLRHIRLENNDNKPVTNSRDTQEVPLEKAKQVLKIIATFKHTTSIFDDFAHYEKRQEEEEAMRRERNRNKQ
Assay: EMSA, pull-down
Conditions: N6-methyl-dA at A10 of strand 1; EMSA: LightShift kit, 30 C 20 min, then 2% glutaraldehyde on ice 15 min, 5% native gel; recombinant protein; protein details: His; label: 3' biotin strand 1

Sequence: CTATGTTTCATGTACCGCCA (double strand) [6mA-ds-oligo]
- binding result: binds
